Tested on: A549
Assay: Cytotoxicity against human A549 cells
Assay type: functional, cell-based

CC(=O)O[C@H]1C(=O)[C@@]2(C)[C@H]([C@H](OC(=O)c3ccccc3)[C@]3(O)C[C@H](OC(=O)[C@H](O)[C@@H](NC(=O)c4ccccc4)c4ccccc4)C(C)=C1C3(C)C)[C@]1(OC(C)=O)CO[C@@H]1C[C@@H]2O [PACLITAXEL]
IC50: 6.3 nM

Source: ChEMBL document CHEMBL3734706, “Syntheses and biological evaluation of C-3'-N-acyl modified taxane analogues from 1-deoxybaccatin-VI” (Eur J Med Chem, 2015)
